Measured values taken from PubChem BioAssay AID445 (National Center for Advancing Translational Sciences (NCATS), 2006).
This is one part of the list. These are further read-outs of the screen, such as a control signal, another cell line or another target. No call is given for them. Compounds called inactive in the main read-out are mostly missing here. Potencies come from curve fits of mixed quality, noted in brackets.

Test: IkB Signaling
Details: ABC-DLBCL IkBa-CBG/CBR dual luciferase ratio (green luciferase fused to IkBa over red control in OCI-Ly3 lymphoma cells), 4 h; measured here: control luc red channel unless noted
Summary of the method: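 In this assay, an IκBα–CBG68 fusion accumulates when IKK-driven degradation is blocked; native CBR normalizes for cell number. OCI-Ly3 cells were treated 4 h with compound and doxycycline, then green and red light read after Chroma-Glo addition.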

Row | SMILES | AC50
1 | O=C(c1cc(-c2cccs2)on1)N1CCCc2ccccc21 | 20 µM [falling, partial curve]
2 | O=S(=O)(NCC(c1cccs1)S(=O)(=O)c1ccccc1)c1ccc(F)c(C(F)(F)F)c1 (centres undefined) | 39.8 µM [falling, single point]
3 | CCN(Cc1ccccc1)S(=O)(=O)c1cc(C(=O)Nc2cc(Cl)cc(Cl)c2)ccc1F | 15.8 µM [falling, partial curve]
4 | CC(C)(C)C1CCc2c(sc(NC(=O)c3ccc(Cl)cc3)c2C(=O)NCc2ccco2)C1 (centres undefined) | 10 µM [falling, partial curve]
5 | COc1ccccc1N1CCN(c2ncnc3c2cnn3-c2cccc(Cl)c2)CC1 | 2.51 µM [falling, full curve]
6 | CCNS(=O)(=O)c1ccc(NC(=O)Nc2cccc(C(F)(F)F)c2)cc1 | 25.1 µM [falling, partial curve]
7 | Cc1ccc(Cn2c(CN3CCC(C(=O)NCCc4ccccc4)CC3)cc3ccccc32)cc1 | 15.8 µM [falling, partial curve]
8 | CC(C)Sc1ncc(Cl)c(C(=O)N(Cc2ccc(N(C)C)cc2)C2CCS(=O)(=O)C2)n1 (centres undefined) | 39.8 µM [falling, single point]
9 | CCc1nn(CC(=O)Nc2ccc(N(CC)CC)cc2C)c(=O)c2cc3sccc3n12 | 39.8 µM [falling, single point]
10 | N#Cc1ccc(C(=O)Nc2ccc3c(c2)N(C2CCCC2)C(=O)c2ccccc2S3)cc1 | 0.126 µM [falling, partial curve, poor fit]
11 | Cc1ccc(-c2noc(-c3ccccc3NC(=O)C3CC(=O)N(c4ccccc4C)C3)n2)cc1 (centres undefined) | 0.0794 µM [rising, full curve, poor fit]
12 | CCOC(=O)c1c(NC(=O)c2ccc(Br)o2)sc(C)c1CC | 10 µM [falling, partial curve]
13 | Cc1nn(-c2ccc(N3CCCC3)nn2)c(C)c1CCC(=O)Nc1ccc(F)c(Cl)c1 | 25.1 µM [falling, partial curve]
14 | O=C(NCCc1nc2ccccc2n1Cc1ccc(Cl)cc1Cl)c1ccco1 | 39.8 µM [falling, single point]
15 | CC(C)Cn1c(=O)c2ccccc2n2c(CCC(=O)NC(C)c3ccccc3)nnc12 (centres undefined) | 15.8 µM [falling, partial curve]
16 | CCOc1ccc(C2C(C(=O)Nc3ccccc3)=C(C)Nc3nc(SCc4cc(C)ccc4C)nn32)cc1 (centres undefined) | 2 µM [rising, partial curve]
17 | Cc1cc(C)c2nc(N(Cc3cccnc3)C(=O)c3cccs3)sc2c1 | 25.1 µM [falling, single point]
18 | COc1cc(Cl)ccc1NC(=O)COc1ccccc1C(=O)N1CCN(c2ccc(O)cc2)CC1 | 25.1 µM [falling, partial curve]
19 | COc1cc(NS(=O)(=O)c2ccc(OC)c(C)c2C)c(OC)cc1Cl | 10 µM [falling, partial curve]
20 | COc1cccc(C2=NOC(C(=O)Nc3cccc(C(C)=O)c3)C2)c1OC (centres undefined) | 15.8 µM [falling, partial curve]

Row | SMILES | AC50
21 | COc1ccc(OCc2nnc3n2N=C(c2ccc(C)cc2)CS3)cc1 | 39.8 µM [falling, single point]
22 | CCN(CC)C(=O)c1sc2c(c1C)c(=O)n(-c1ccc(OC)cc1OC)c(=O)n2CC(=O)c1ccc(Cl)cc1 | 3.16 µM [rising, partial curve, poor fit]
23 | COc1cc(NC(=O)c2oc3c(c2C)-c2nn(Cc4cccc(Cl)c4)cc2CC3)cc(OC)c1 | 3.16 µM [rising, partial curve]
24 | CCOc1ccc(N(C(C)C(=O)Nc2cc(Cl)ccc2OC)S(C)(=O)=O)cc1 (centres undefined) | 39.8 µM [falling, partial curve]
25 | O=C(Nc1ccc(OC(F)(F)F)cc1)C1CCN(S(=O)(=O)c2cccs2)CC1 | 12.6 µM [falling, partial curve]
26 | CCOC(=O)C1CCN(C(=O)c2ccc3c(=O)n4nc(Nc5cc(C)ccc5C)sc4nc3c2)CC1 | 39.8 µM [falling, single point]
27 | CCOc1cccc(C2c3c(-c4cc(C)ccc4O)n[nH]c3C(=O)N2Cc2ccco2)c1 (centres undefined) | 31.6 µM [falling, single point]
28 | CC(C)(C)NC(=O)C(c1ccco1)N(C(=O)Cn1nnc(-c2ccc(F)cc2)n1)c1ccccc1F (centres undefined) | 12.6 µM [falling, partial curve]
29 | CCn1cc(C(=O)N2CCN(c3ccc(C(C)=O)cc3)CC2)c2cc(OC)c(OC)cc2c1=O | 0.794 µM [rising, full curve, poor fit]
30 | Cc1cc(NC(=O)c2c(F)c(F)c(F)c(F)c2F)no1 | 20 µM [falling, partial curve]
31 | Cc1ccc(NC(=O)Cn2c(=O)oc3cc(S(=O)(=O)NCc4ccccc4)ccc32)cc1 | 12.6 µM [falling, partial curve]
32 | CCOc1ccc(CCNC(=O)CN2N=C(c3ccccc3)CCC2=O)cc1OCC | 3.98 µM [rising, full curve]
33 | Cc1cccc(N2CCN(c3cccc(C)c3)C2c2cccnc2)c1 | 10 µM [falling, partial curve]
34 | Cc1ccc2nc(N(Cc3cccnc3)C(=O)CCS(=O)(=O)c3ccccc3)sc2c1 | 39.8 µM [falling, single point]
35 | Cc1cc2nc(-c3ccc(NC(=O)C(C)C)cc3)oc2cc1C | 0.398 µM [rising, partial curve, poor fit]
36 | Cc1ccc(CN(Cc2ccco2)C(=O)COc2ccc(C(C)C)cc2)cc1 | 6.31 µM [falling, full curve]
37 | CCOC(=O)c1cc(C)n(CC2CCC(C(=O)Nc3ccc(C)c(F)c3)CC2)c1C (centres undefined) | 7.94 µM [falling, full curve]
38 | Cc1csc(NC(=O)CSc2nc(C(C)C)nc3c2c(=O)n(C)c(=O)n3C)n1 | 12.6 µM [falling, partial curve]
39 | COc1ccc(-n2c(C)cc(C(=O)CSc3nnc(-c4ccoc4C)n3C)c2C)cc1 | 25.1 µM [falling, single point]

Reformatted: entries from further up
Row,SMILES,AC50
6,CCNS(=O)(=O)c1ccc(NC(=O)Nc2cccc(C(F)(F)F)c2)cc1,"25.1 µM [falling, partial curve]"
7,Cc1ccc(Cn2c(CN3CCC(C(=O)NCCc4ccccc4)CC3)cc3ccccc32)cc1,"15.8 µM [falling, partial curve]"
